Assay results reported in PubChem BioAssay AID2685 (National Center for Advancing Translational Sciences (NCATS), 2010).
This is one part of the list. Shown are side measurements of this screen, not its main read-out; they come without a call. Most of these compounds were active or inconclusive in the main read-out, so they are no random draw. Potencies come from curve fits of mixed quality, noted in brackets.

Assay: qHTS Assay for Lipid Storage Modulators in Drosophila S3 Cells;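 for cell number change: cells counted by Cell Tracker Red CMTPX staining in the red channel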
Settings: BODIPY lipid droplet fluorescence, 18-24 h; for cell number change: measured here: cell count max response, cells fed with added oleic acid
How it was run: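 Drosophila S3 cells got compounds at several concentrations plus oleic acid (400 uM solution). Laser-scanning cytometry with 488 nm excitation read lipid droplets at 500-530 nm and cells at 575-640 nm. Percent activity was relative to 20 uM Triacsin C.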

[1] = measured here: lipid fluorescence (Fed channel) AC50, cells fed with added oleic acid
[2] = measured here: cell number channel AC50, cells fed with added oleic acid

Row | Structure (SMILES) | cell number change [%] | AC50 [1] | AC50 [2]
1 | Cc1ccc(S(=O)(=O)Nc2ccccn2)cc1[N+](=O)[O-] | 44.8 | 2.31 µM [falling, partial curve] | –
2 | CCOC(=O)c1cc2c(ccn2C)n1CC(=O)N1CCN(c2cccc(C(F)(F)F)c2)CC1 | -43.6 | – | 20.6 µM [falling, partial curve]
3 | COc1ccc(Cl)cc1NC(=O)CC(C)=O | 11.9 | 5.8 µM [falling, single point] | –
4 | CC1CN(C(=O)c2nn(C)cc2[N+](=O)[O-])CC(C)O1 (centres undefined) | -19.8 | 0.00517 µM [falling, full curve, poor fit] | –
5 | COc1ccccc1/C=C/C=N/n1c(-c2ccc(C)cc2)n[nH]c1=S | -5.65 | 3.26 µM [rising, single point] | –
6 | COC(=O)c1cccc(NC(=O)CCN2C(=O)C3CC=CCC3C2=O)c1 (centres undefined) | 12.4 | 1.03 µM [rising, full curve, poor fit] | –
7 | CCOC(=O)C(C)c1n[nH]c(=O)c2ccccc12 (centres undefined) | 20.6 | 6.51 µM [rising, single point] | –
8 | Cc1ccc(-n2cc(CNCCCn3cccn3)c(-c3cccc(C)c3)n2)cc1 | -40.8 | 0.651 µM [falling, full curve, poor fit] | 9.2 µM [falling, partial curve, poor fit]
9 | Cc1cc(NC(=O)CCS(=O)(=O)c2ccc(F)cc2)no1 | 3.21 | – | –
10 | O=C(CCCN1C(=O)C2CC=CCC2C1=O)Nc1ccccc1Cl (centres undefined) | -8.96 | – | –
11 | COc1ccc(/C=C/C(=O)c2ccc(O)cc2)cc1COc1ccc(F)cc1 | -46 | – | 29.1 µM [falling, single point]
12 | COc1ccc(NC(=O)CN2CCC(NC(=O)c3ccc(OC)cc3)CC2)cc1 | 3.23 | 1.16 µM [rising, full curve, poor fit] | –
13 | Cc1ccc(C2CC(=O)C(C=NCCN3CCN(CC(=O)Nc4cc(C)cc(C)c4)CC3)=C(O)C2)cc1 (centres undefined) | 2.84 | 0.411 µM [falling, partial curve, poor fit] | –
14 | COc1ccc(N2C(=O)CCC(C(=O)O)C2c2ccc(OC)c(OC)c2)cc1 (centres undefined) | -90.8 | – | 29.1 µM [falling, single point]
15 | C=CCNC(=O)C(=O)c1cccn1-c1ccsc1C(=O)OC | -54.8 | – | 29.1 µM [falling, single point]
16 | Cc1ccc(S(=O)(=O)NCCC(=O)NCc2ccc(Cl)cc2)cc1C | -32.9 | 29.1 µM [falling, single point] | 36.6 µM [falling, partial curve, poor fit]
17 | OCCN(CCO)c1nc(N2CCCCC2)c2nc(N(CCO)CCO)nc(N3CCCCC3)c2n1 | -28 | 11.6 µM [rising, partial curve] | –
18 | CNc1nc(SCC(=O)OC)nc(N2CCOCC2)n1 | -11 | – | –
19 | CC(NC(=O)c1ccccc1NC(=O)CN1CCN(c2ccccc2O)CC1)c1ccccc1 (centres undefined) | – | 6.51 µM [falling, single point] | –

Taken from above:
Under AC50 [1], `Cc1ccc(S(=O)(=O)Nc2ccccn2)cc1[N+](=O)[O-]` is listed with 2.31 µM [falling, partial curve]
Under AC50 [2], `CCOC(=O)c1cc2c(ccn2C)n1CC(=O)N1CCN(c2cccc(C(F)(F)F)c2)CC1` is listed with 20.6 µM [falling, partial curve]

Continuation.

Row | Structure (SMILES) | cell number change [%] | AC50 [1] | AC50 [2]
20 | CN(C)c1ccc(-c2sc(Nc3ccccc3)n[n+]2-c2ccc(F)cc2)cc1 | -2.4 | 29.1 µM [falling, single point] | –
21 | COC(=O)N/N=C(\C)c1ccc(-n2ccnc2)cc1 | -4.48 | 6.51 µM [rising, partial curve] | 2.59 µM [rising, partial curve]
22 | O=[N+]([O-])c1ccc(-c2c(-c3ccccc3)ncc3ccc(F)cc23)cc1 | -34.3 | 0.116 µM [falling, full curve, poor fit] | 0.82 µM [falling, partial curve, poor fit]
23 | CCC(C(=O)NCCCN1CCOCC1)n1c2ccccc2c2nc(=O)cc(C)n21 (centres undefined) | 6.19 | 6.51 µM [rising, single point] | –
24 | C=CCNC(=O)c1ccc(C)c(Br)c1 | – | – | 6.51 µM [rising, single point]
25 | O=[N+]([O-])c1ccc(O)c(-c2nc(-c3ccccc3)c(-c3cccs3)[nH]2)c1 | -39.8 | – | 20.6 µM [falling, single point]
26 | CCOC(=O)N1CCN(C(=O)COC(=O)c2ccc([N+](=O)[O-])cc2Cl)CC1 | 35 | – | 18.4 µM [rising, single point]
27 | Cc1ccc(S(=O)(=O)N2CCN(C(=O)COC(=O)C3CC3C)CC2)c(C)c1 (centres undefined) | 1.17 | 1.84 µM [rising, partial curve] | –
28 | O=C(Nc1ccccc1C(=O)NC(Cc1c[nH]c2ccccc12)C(=O)O)c1ccco1 (centres undefined) | 16.4 | – | –
29 | COc1ccc(N2CCN(S(=O)(=O)c3c(C)noc3/C=C/N(C)C)CC2)cc1 | -9.25 | 29.1 µM [rising, single point] | –
30 | CCOC(=O)C1Nc2ccc(Br)cc2C2C=CCC12 (centres undefined) | 0.338 | – | –
31 | COc1ccccc1CN(C)C(=O)c1cccc(S(=O)(=O)N2CCCC2)c1 | 19.8 | 29.1 µM [rising, single point] | –
32 | COC(CNC(=O)c1ccc2c(=O)n(Cc3ccc4c(c3)OCO4)c(=S)[nH]c2c1)OC | -98.7 | 14.6 µM [falling, partial curve] | 20.6 µM [falling, partial curve]
33 | COc1ccc(/C=C/C(=O)c2ccc(OC)cc2OC)c(OC)c1 | -17.3 | 0.326 µM [rising, full curve] | –
34 | O=C(Oc1cccnc1)c1ccccc1[N+](=O)[O-] | 99.6 | 6.51 µM [rising, partial curve] | 0.164 µM [rising, full curve]
35 | CC(=O)Nc1ccc(NC(=O)CSc2nnc(NC(=O)C3CC(=O)N(c4ccccc4)C3)s2)cc1 (centres undefined) | 12 | 0.461 µM [rising, full curve, poor fit] | –
36 | Nn1c(Cc2cccc3ccccc23)nnc1SC1CCOC1=O (centres undefined) | 20.9 | – | –
37 | Cc1nnc2ccc(-c3cccc(NS(C)(=O)=O)c3)nn12 | 29.9 | 29.1 µM [rising, single point] | –
38 | C=CCn1c(Cc2cccs2)nnc1SCC(=O)Nc1ccc(OC)cc1 | 3.7 | 2.06 µM [rising, single point] | –
